Data taken from PubChem BioAssay AID1347423 (Functional Genomics Laboratory (NCATS/FGL), 2020).
Among all 52,000 sequences or so, about 210 (0.4%) were called active.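 Rule for the calls: active = gene whose silencing raises cell survival under the drug, median off-target-corrected z-score across its silencing RNAs 2 or more; inactive = the rest.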 The list shows a part of the results.

Assay: Resistance to Poly (ADP-Ribose) Polymerase inhibitor: Gene Identification via Genome-wide siRNA Screen
Conditions: mouse BRCA2 R2336H ES cells, olaparib, CellTiter-Glo viability; active compounds read high
Summary of the method: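 Genome-wide siRNA screen (3 siRNAs/gene, 20 nM) in mouse ES cells carrying hypomorphic BRCA2 R2336H; olaparib 500 nM added 48 h post-transfection, CellTiter-Glo viability 72 h later. Normalized to plate-median negative control; MAD z-scores, gene median, seed-adjusted.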
For CCAUUUAAGUGUGUGUUAATT against Rbmx, the z-score was inactive: 1.08.
For GCAAGUAUUAAGUAUGACGTT against Vps13c, the z-score was inactive: 0.194.
With CCCUCAUUGUAACCUUAACTT against Olfr792 the z-score was inactive: -0.245.
In the case of GGCACAUGAUCCUUAAUUUTT against Pfkfb3, the z-score is reported as inactive: 2.32.
In the case of GGUUCUGACCACCUACAUATT against Htr3a, the z-score is reported as inactive: -0.97.
With GGAGAUCAGUCCUACAAAGTT against Ralbp1 the z-score was inactive: -0.493.
For GAUCCUUGACUACAUCUAUTT against Accn4, the z-score was inactive: 1.27.
With “GGUGUGGGUGGGAAAAGAATT against 2610027C15Rik” the z-score was inactive: -1.77.
With “GGAUCAUCACUACUACAAUTT against 4932415M13” the z-score was inactive: 0.158.
With GGAAGUGAUCCUUAAAAGATT against Ebf1 the z-score was inactive: 0.568.
For CCAUCAAUUGGAAAUCUUUTT against Tnn, the z-score was inactive: 0.698.
For GGAAAUGUGUCCUUGACCATT against Timd2, the z-score was inactive: -0.0731.
With GGAUCCUAGUGAUGAUAAUTT against Styx the z-score was inactive: -0.857.
With “GGAACAUAUGCUCAGAAGATT against 1110031B11Rik” the z-score was inactive: 0.034.
For CGGCAUGCUGUGGAAAAAGTT against Btrc, the z-score was inactive: -0.222.
For GGACAAGGCCAAGCUAUAATT against Cntnap2, the z-score was inactive: -2.01.
For GCUAAAUUGUAUCCCUUCUTT against Pou2af1, the z-score was inactive: -0.145.
With “GCGUAAAAUUUGGUGCAACTT against 4930452B06Rik” the z-score was inactive: 3.01.
With GGUACACUGGAUUUUCUGGTT against Slc4a1 the z-score was inactive: -0.254.
For GGCUUAUCUAACCAAGUACTT against Prdm4, the z-score was inactive: 0.592.
For CCUACUAUAUAUGUGAUGCTT against Jrk, the z-score was inactive: 1.98.
With GGGAUUUUACAGACUUAAGTT against Tm4sf1 the z-score was inactive: -0.628.
With “GGUGCUGGACAAAUUGAGATT against E330016A19Rik” the z-score was inactive: 0.665.
With CCAGUGAAUGACUUCACUCTT against Rpp21 the z-score was inactive: -0.065.
For CGGGAAAUUUCUAUUGGACTT against Akr1c12, the z-score was inactive: 0.0337.
With CCUAUAAUGCUUACAGGAUTT against Olfr477 the z-score was inactive: -1.02.
In the case of GCUCUAUUGUCUGGUAUUGTT against AJ543404, the z-score is reported as inactive: -0.868.
For “GGAAGUAGAUUUGAAGUUGTT against 1700017G21Rik”, the z-score was inactive: 0.871.
For GGUACACAUAACACAGAUATT against Rpl23, the z-score was inactive: 0.38.
In the case of GGAACAUUGAUGGAAUUGGTT against Sec61a2, the z-score is reported as inactive: 0.0933.
In the case of GGCUUAAACGAUUUUUCCATT against Elp3, the z-score is reported as inactive: 0.439.
With GCUAAUUACAGCUUCUCCCTT against Yars the z-score was inactive: 3.02.
With “GGCUGAGUUUAUUUUUGAGTT against D930036F22Rik” the z-score was inactive: -0.183.
For GGUGAAAGAUGCCUCUAAGTT against Olfr1038, the z-score was inactive: -0.231.
For “CGAUUACAUCCUUUUUGACTT against A930018B01Rik”, the z-score was inactive: 0.363.
With CCCAAUCAGCAUUUGCUCUTT against H2-M10.3 the z-score was inactive: 1.25.
For GGCAUCAAUCAUGAGCAUUTT against Chrna4, the z-score was inactive: 0.103.
For “GGUCACGGAGAAACUAAAGTT against 2700017M01Rik”, the z-score was inactive: 0.727.
In the case of GGAAAGGACUGGAAGAAUUTT against Mrpl47, the z-score is reported as inactive: 0.315.
For CCCUGUAAGGACCAAUAAATT against Dact1, the z-score was inactive: -0.0457.
For “CGGAGGAGAAAUCUUGUAATT against 6820416H06Rik”, the z-score was inactive: -0.504.
In the case of “GCAUAUCCUAAACACUGUUTT against E030024M05Rik”, the z-score is reported as inactive: -0.433.
With GGACCAGUUGUAAAUGUUATT against Hoxd9 the z-score was inactive: -0.318.
For GGUGGCAAUGACAACUACUTT against Rnase4, the z-score was inactive: -0.634.
In the case of GGACAAAAUUGAACACAAGTT against Pogz, the z-score is reported as inactive: 0.536.
For GGUUUUCAGUACAUCCUGGTT against Cryba4, the z-score was inactive: 1.34.
For UCCCAGAAUAAGAGUGAGGTT against Aplra1, the z-score was inactive: 0.702.
In the case of “GGGUGAUAGCUCCUAUGUGTT against A530023G15Rik”, the z-score is reported as inactive: 0.569.
With GGAUCUGCACACCUAUGGGTT against Prok2 the z-score was inactive: -0.878.
In the case of GGUCCACCUCAACAAGCUATT against Zfp536, the z-score is reported as inactive: 0.942.
In the case of GGUAGAAGCCAAGAUGAGCTT against Abi3, the z-score is reported as inactive: 0.796.
For “GCCCUUCGCUUAGUCAGAATT against 4921505C17Rik”, the z-score was inactive: -0.144.
In the case of GGAAGUGGCUUUUUAUCAGTT against Arhgap6, the z-score is reported as inactive: 0.0376.
With CAUUGUCAUUCUAGUUGCATT against Olfr1251 the z-score was inactive: 1.56.
For GGAGAUUGACCUGGUCAACTT against Cav1, the z-score was inactive: -0.0906.
In the case of “GGUUUAUACUCAUAACCUGTT against 2510003E04Rik”, the z-score is reported as inactive: 1.91.
For GGGUCAGGAGGAAAAAAAATT against Reps1, the z-score was inactive: 0.869.
In the case of GGAGUUUGUUAAUUUCGCATT against Rap2ip, the z-score is reported as inactive: 0.0748.
In the case of GGGACAAUGCUGUCAUUGATT against Noxa1, the z-score is reported as inactive: -1.4.
With GCCCGUUCCACUUUUGGAGTT against Nedd1 the z-score was inactive: 0.715.
For GGAGACGAGUCACAUCUCATT against Cables2, the z-score was inactive: 0.578.
In the case of GGAACAACUUGAUACCUCUTT against Trim44, the z-score is reported as inactive: -1.48.
In the case of GGAGCUGCUGUUAAUUCCATT against Col5a3, the z-score is reported as inactive: -0.383.
With CCAUAGGAAUGCAUUUGAGTT against Arhgef7 the z-score was inactive: -1.66.
In the case of CCUUGAAGUAUCAGGUGGATT against Sytl3, the z-score is reported as inactive: -0.232.
In the case of CCUUUGUCCUUUUGUUGUGTT against Defb15, the z-score is reported as inactive: 0.748.
For CCACGUAGGUAAGUGUAGGTT against AI314976, the z-score was inactive: 0.0873.
With CCUCCAGUUCAGAAUUCUATT against Surf4 the z-score was inactive: -0.141.
For GCCCUUACCAUGUGUCCUUTT against Olfr1346, the z-score was inactive: -0.663.
For GGCCUUGCUUCAUAUAAGGTT against Myst4, the z-score was inactive: -0.139.
In the case of GGGUAGUGGUGAGCAAGACTT against Wnt10b, the z-score is reported as inactive: -0.39.
For “CCAACGUGCUGAAUUAUUATT against D230002A01Rik”, the z-score was inactive: -0.183.
With GGAACUGAAGUUGAAAUAATT against Pkhd1l1 the z-score was inactive: -1.57.
In the case of CCCUCUGGAUGGAUCUUCATT against Fbp2, the z-score is reported as inactive: 0.555.
With GGAUGAUCACACUAGAGUUTT against BC017647 the z-score was inactive: -1.38.
For GGAAGUGAUAUCAUCGUAGTT against Dnajb11, the z-score was inactive: -0.888.
With GGAGACUAUUACCAUACUGTT against P4ha2 the z-score was inactive: 0.46.
With “GCUCGAGAAGAGUUUGUUATT against 1700030J22Rik” the z-score was inactive: -0.397.
With CGGACUUCUCAAGACUUAUTT against AI451557 the z-score was inactive: 0.136.
In the case of GUACAUGAGAGACCCUGAUTT against Lsm7, the z-score is reported as inactive: -2.03.
With GGGCAAGUUUUCUACAUUUTT against Cntnap2 the z-score was inactive: 0.942.
For GGUGAUUGAACAGAGCUACTT against Slc2a4, the z-score was inactive: -0.792.
For GGGUCAACCCGAUAUUACCTT against Kcnh7, the z-score was inactive: 0.826.
For GCAAUUAGUAUCUAUUACCTT against Txnl5, the z-score was inactive: -0.353.
For GCUACCCUCGUUGUUGACATT against Hcrtr2, the z-score was inactive: -1.36.
For “CCUGAUGUAGAAGCAUACUTT against 2310004K06Rik”, the z-score was inactive: 1.41.
With GGAUGUAACUAGUAACUUUTT against Kcnn3 the z-score was inactive: -1.07.
With GGAAAUCGAGCAAAAGACATT against BC046331 the z-score was inactive: 0.0524.
In the case of GCAUGAGUAUUCCAAGGAGTT against Arhgef7, the z-score is reported as inactive: -0.0633.
With GGAGCUAAAGCUGCUGAUUTT against Calb3 the z-score was inactive: 0.983.
For CGGGCACUUAAGUUUCCAGTT against Nfix, the z-score was inactive: -0.278.
With GGUCAGAGGGCGAAUUAAATT against Akap4 the z-score was inactive: -0.234.
With GGAAAUGGUUCUAACAAAATT against Cpa5 the z-score was inactive: 1.02.
With GCCAGUAUGCAAAGACUCATT against LOC214403 the z-score was inactive: -0.585.
In the case of GGGAUAUUGAGGAAGGUAUTT against Eda2r, the z-score is reported as inactive: 0.0137.
In the case of GGAAGAUGACCUCUACAUCTT against Aldh3a1, the z-score is reported as inactive: -0.611.
In the case of GCAUAAUUCUUUCUUCGCATT against Krtap14, the z-score is reported as inactive: 1.98.
With GGUUUCAAAUAAAAAGGCATT against Lrpb7 the z-score was inactive: 0.965.
In the case of GCCACGAAGGUACUAUGUATT against Tbce, the z-score is reported as inactive: -0.275.
With “GGUUUCGUUGUUCUUGUUGTT against 2900001O04Rik” the z-score was inactive: 0.407.
For GGUAGAAUACCUUCAGAUUTT against Ercc4, the z-score was inactive: 0.198.
With “CCGGGUAGUCUUUUUGGUGTT against 9130019O22Rik” the z-score was inactive: 0.976.
For GCCGUUAGAAACAAAGUCGTT against Taf3, the z-score was inactive: -0.374.
For GGCGGAGUAGACUUCAUAUTT against Olfr593, the z-score was inactive: -2.45.
